# Reference: the supplement of paper PMC10735217
# Where a name gives a salt, the structure may show the parent alone. Some of the results follow. Single values are uncertain here, since repeats match poorly.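 The human kidney-derived cells carry a stably integrated construct of eight TEAD-binding elements driving luciferase, read by luminescence in a drug-repurposing library screen. A compound counts as a hit when its signal is more than five robust Z scores above the plate mean.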
# Test system: HEK293A TEAD-LUC reporter
# Test: TEAD-luciferase reporter activity (YAP activation), robust Z score vs plate; higher = stronger YAP/TEAD activation
# Conditions: 24 h
SMILES,TEAD-luciferase reporter activity (compound concentration: 200 nM),TEAD-luciferase reporter activity (compound concentration: 2 uM),TEAD-luciferase reporter activity (compound concentration: 10 uM)
Cc1c(Cl)c(C(F)(F)F)nn1CC(=O)N1CCN(c2ccc(F)cc2)CC1,inactive: -1.27,inactive: -0.921,inactive: -1.48
CC(C(=O)OCCCN1CCCCC1=O)c1cccc(C(=O)c2ccccc2)c1 (stereo unspecified),inactive: 1.02,inactive: -0.634,inactive: 0.213
O=C(c1ccc2c(c1)OCO2)N1CCC(Cc2ccccc2)(C(=O)O)CC1,inactive: -2.53,,inactive: 0.649
N=C(N)c1ncn([C@@H]2O[C@H](CO)C(O)C2O)n1 (stereo partly specified) [Taribavirin hydrochloride],inactive: -0.772,inactive: -0.695,inactive: -0.315
CN(Cc1cc(Br)cc(Br)c1NC(=O)[C@H](CSSC[C@H](NC(=O)OCc1ccccc1)C(=O)O)NC(=O)OCc1ccccc1)C1CCCCC1,inactive: -0.451,inactive: 2.6,inactive: -0.733
CCOc1cc([C@@H](CS(C)(=O)=O)N2Cc3cccc(NC(=O)C4CC4)c3C2=O)ccc1OC,inactive: -0.67,inactive: 1.08,inactive: 0.749
NC(CO)(CO)CO,inactive: -1.31,,inactive: 1.14
NC(CO)(CO)CO [Trometamol],,inactive: -1.68,
Cc1ccc(CN2CCCC23Cc2ccccc2CNC3=O)cc1 (stereo unspecified),inactive: 5.3e-05,,inactive: 3.59
CC1(C)Oc2ccc(C#N)cc2[C@H](N2CCCC2)[C@H]1O [Pharmaprojects No. 557],inactive: -0.812,inactive: -1.67,inactive: 3.24
CCOc1cc(/C=C(/C#N)C(N)=O)cc(CSc2ccccc2)c1O,inactive: -1.52,inactive: -1.14,inactive: -0.615
FC(F)(F)c1ccc(CNc2ccc(Cc3c[nH]c4ncc(Cl)cc34)cn2)cn1 [Pexidartinib],inactive: -0.608,inactive: -0.831,inactive: -0.776
O=C(O)CN1C(=O)c2cccc3cccc(c23)C1=O [alrestatin],inactive: 1.46,inactive: -0.32,inactive: 2.78
NC(=O)[C@H](CCC(=O)O)NC(=O)Cc1ccccc1,inactive: -0.883,inactive: -1.5,inactive: 0.966
Cc1cc(=O)oc2cc(OS(=O)(=O)[O-])ccc12,inactive: -0.72,inactive: -1.37,inactive: -1.23
CC(=O)Oc1ccccc1C(=O)Nc1ncc(Cl)s1,inactive: -0.507,inactive: -0.42,inactive: -0.00996
Cc1cc(Cl)c(OCCOc2ccc(C3=C(C(=O)N(Cc4cccc(C)c4C)C4CC4)C4CNCC(C3)N4)cc2)c(Cl)c1 (stereo unspecified),inactive: 2.16,inactive: 1.46,inactive: 2.49

# Full records from above. Values in the order: TEAD-luciferase reporter activity (compound concentration: 200 nM) | TEAD-luciferase reporter activity (compound concentration: 2 uM) | TEAD-luciferase reporter activity (compound concentration: 10 uM)
# CC1(C)Oc2ccc(C#N)cc2[C@H](N2CCCC2)[C@H]1O [Pharmaprojects No. 557] is entered as inactive: -0.812 | inactive: -1.67 | inactive: 3.24
# Cc1cc(=O)oc2cc(OS(=O)(=O)[O-])ccc12 is entered as inactive: -0.72 | inactive: -1.37 | inactive: -1.23
